Some results were stated once for a whole list of compounds, not compound by compound.
Test system: PBMC or BAL cells (T cell proliferation)
Assay type: cell-based, human

**Q.** Which “Stimulation index (SI) of positive control substances” value does the source give for Tetanus toxoid here?
**A.** The value was greater than 2.5.

From patent publication US20070014723A1, “Methods and compositions for 10Beryllium complex probes” (priority 2005, published 2007)
